Data reported in US20230279123A1.
Residue numbers refer to the chain shown, from its start. No constants are given. Whether binding was seen depends on the method and setting. Some entries that bind do so weakly or less than the wild type. Blank lines part the entries; values can stand above or below the binder they belong to.

Amino acid sequences for entries named in this document (tags omitted). Residues count along the entry.
UniProt P24394, residues 26-232: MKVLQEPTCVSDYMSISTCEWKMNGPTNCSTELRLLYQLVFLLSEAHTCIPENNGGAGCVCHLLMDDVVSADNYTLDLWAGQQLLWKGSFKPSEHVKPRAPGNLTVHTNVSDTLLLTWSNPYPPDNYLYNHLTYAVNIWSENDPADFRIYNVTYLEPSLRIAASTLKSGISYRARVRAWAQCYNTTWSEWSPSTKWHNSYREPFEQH

Biological target: IL-4Rα (receptor protein / antigen) (UniProt P24394)
Assay: BLI (Octet 96)

binding: binds
B1: humanized anti-IL-4Rα single domain antibody 4E9-V6 (VHH)
VHH: QVQLVESGGGLVQPGGSLRLSCAASGDFYCMAWFRQAPGKEREAVATIRSGGRSTYYADSVKGRFTISRDNSKNTLYLQMNSLKAEDTAVYYCAVGVDGNCRNYWGQGTLVTVSS

binding: binds
B2: humanized anti-IL-4Rα single domain antibody 4E9-V10 (VHH)
VHH: B1 VHH with T47A
